From the supplement of paper PMC11006884
What follows is the remainder of the data, with few or none of the targets with a hit. Single values of this set are uncertain. The entries are a selection whose mix differs from that of the whole data set.

Protein sequences, listed by entry. Tags and fused reporters are not part of them. Lines headed by an entry give the natural chain unless they say otherwise; changes in a name come on top.
UniProt Q9BZL6: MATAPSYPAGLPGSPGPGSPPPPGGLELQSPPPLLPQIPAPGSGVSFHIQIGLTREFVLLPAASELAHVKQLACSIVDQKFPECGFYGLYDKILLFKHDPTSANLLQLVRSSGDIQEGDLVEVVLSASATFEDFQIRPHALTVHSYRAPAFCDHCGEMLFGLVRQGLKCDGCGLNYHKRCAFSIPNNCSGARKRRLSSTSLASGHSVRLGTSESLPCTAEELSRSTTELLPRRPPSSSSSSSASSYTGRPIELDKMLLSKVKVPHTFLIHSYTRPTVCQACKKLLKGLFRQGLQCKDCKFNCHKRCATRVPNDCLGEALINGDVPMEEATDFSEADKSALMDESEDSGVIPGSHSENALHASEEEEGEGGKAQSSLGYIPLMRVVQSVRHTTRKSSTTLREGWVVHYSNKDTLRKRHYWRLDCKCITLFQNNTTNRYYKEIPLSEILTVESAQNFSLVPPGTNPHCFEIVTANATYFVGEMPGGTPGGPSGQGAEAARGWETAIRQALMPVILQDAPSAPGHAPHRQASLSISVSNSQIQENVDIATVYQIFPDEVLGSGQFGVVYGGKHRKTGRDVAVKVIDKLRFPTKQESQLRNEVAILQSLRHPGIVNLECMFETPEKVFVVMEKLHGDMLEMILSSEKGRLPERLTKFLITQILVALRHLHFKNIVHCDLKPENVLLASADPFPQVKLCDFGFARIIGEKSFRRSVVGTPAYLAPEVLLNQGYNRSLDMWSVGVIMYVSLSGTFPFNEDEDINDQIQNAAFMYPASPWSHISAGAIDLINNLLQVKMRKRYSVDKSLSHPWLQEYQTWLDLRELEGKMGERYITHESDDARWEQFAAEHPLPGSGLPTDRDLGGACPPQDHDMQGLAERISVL
UniProt Q9C0C2: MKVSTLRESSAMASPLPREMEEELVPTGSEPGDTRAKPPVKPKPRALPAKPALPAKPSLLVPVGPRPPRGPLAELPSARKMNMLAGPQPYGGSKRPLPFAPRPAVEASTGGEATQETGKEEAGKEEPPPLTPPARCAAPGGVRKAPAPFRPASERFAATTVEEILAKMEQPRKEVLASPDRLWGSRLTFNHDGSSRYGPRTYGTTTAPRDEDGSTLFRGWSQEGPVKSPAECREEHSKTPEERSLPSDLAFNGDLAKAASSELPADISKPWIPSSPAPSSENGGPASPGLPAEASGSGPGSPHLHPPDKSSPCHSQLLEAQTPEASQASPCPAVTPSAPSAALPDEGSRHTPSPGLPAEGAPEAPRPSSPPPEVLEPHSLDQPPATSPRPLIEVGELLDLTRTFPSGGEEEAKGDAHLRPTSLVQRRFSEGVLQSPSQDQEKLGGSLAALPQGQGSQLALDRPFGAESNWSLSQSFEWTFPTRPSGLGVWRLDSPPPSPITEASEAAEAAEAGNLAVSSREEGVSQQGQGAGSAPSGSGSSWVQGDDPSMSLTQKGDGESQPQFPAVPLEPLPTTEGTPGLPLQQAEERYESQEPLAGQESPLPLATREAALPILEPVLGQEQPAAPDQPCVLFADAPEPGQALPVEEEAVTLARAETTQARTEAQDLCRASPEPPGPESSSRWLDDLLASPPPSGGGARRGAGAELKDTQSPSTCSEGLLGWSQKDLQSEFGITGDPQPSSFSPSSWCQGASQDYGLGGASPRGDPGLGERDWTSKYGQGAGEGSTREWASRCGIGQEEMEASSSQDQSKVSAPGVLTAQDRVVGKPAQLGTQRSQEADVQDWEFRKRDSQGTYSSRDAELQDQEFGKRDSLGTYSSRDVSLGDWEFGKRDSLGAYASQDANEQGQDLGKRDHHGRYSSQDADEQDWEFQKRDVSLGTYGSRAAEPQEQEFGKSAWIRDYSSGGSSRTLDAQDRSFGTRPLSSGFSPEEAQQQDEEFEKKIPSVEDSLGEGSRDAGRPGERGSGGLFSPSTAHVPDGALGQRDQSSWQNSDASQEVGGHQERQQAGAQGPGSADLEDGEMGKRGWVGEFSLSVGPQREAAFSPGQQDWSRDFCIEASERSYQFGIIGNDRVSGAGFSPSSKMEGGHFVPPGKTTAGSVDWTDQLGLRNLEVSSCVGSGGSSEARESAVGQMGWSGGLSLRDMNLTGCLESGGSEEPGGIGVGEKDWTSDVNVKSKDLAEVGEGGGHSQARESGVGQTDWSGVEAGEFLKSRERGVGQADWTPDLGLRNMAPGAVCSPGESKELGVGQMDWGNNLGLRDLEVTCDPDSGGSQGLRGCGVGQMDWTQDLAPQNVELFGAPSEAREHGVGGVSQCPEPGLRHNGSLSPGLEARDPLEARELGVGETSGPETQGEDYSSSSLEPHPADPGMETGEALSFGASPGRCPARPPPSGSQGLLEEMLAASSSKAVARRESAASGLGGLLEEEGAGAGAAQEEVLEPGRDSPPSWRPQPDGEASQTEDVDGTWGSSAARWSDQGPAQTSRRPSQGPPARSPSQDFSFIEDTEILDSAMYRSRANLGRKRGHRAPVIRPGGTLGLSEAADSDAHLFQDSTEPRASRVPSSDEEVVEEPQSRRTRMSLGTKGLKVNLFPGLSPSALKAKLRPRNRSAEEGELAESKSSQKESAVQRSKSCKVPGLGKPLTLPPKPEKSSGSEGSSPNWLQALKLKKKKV
UniProt Q9BV44: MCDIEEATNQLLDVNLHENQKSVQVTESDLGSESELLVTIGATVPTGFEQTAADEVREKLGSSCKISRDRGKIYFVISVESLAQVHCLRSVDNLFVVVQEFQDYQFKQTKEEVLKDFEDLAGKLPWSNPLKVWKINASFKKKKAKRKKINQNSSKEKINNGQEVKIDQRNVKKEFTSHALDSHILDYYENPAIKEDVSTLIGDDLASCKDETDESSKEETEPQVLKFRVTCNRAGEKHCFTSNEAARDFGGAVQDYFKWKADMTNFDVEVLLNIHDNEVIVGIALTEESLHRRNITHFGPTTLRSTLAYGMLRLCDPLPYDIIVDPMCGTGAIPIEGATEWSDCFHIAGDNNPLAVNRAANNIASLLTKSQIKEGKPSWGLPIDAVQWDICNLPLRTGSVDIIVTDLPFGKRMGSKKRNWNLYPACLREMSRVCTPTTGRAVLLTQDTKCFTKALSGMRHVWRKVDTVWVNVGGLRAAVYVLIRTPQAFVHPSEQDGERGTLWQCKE
UniProt Q9BSH5: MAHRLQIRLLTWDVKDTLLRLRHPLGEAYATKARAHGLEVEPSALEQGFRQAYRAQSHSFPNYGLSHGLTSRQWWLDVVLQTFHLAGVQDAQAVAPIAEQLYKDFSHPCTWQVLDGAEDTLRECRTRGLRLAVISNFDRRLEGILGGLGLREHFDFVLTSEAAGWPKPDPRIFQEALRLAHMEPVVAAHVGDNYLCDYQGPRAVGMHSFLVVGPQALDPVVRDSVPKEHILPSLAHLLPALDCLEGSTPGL
UniProt Q9BRX2, whole entry, looked up: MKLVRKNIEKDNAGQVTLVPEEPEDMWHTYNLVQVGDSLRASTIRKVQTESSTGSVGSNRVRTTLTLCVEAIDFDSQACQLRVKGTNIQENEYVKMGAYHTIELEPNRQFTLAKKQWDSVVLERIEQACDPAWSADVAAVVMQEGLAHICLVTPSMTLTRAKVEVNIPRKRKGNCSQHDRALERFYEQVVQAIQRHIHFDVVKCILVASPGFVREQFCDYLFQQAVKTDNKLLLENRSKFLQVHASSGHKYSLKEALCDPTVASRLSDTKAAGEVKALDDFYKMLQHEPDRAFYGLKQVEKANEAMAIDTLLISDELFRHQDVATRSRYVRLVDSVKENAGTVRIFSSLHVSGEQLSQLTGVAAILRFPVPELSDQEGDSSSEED
UniProt Q9H2P0: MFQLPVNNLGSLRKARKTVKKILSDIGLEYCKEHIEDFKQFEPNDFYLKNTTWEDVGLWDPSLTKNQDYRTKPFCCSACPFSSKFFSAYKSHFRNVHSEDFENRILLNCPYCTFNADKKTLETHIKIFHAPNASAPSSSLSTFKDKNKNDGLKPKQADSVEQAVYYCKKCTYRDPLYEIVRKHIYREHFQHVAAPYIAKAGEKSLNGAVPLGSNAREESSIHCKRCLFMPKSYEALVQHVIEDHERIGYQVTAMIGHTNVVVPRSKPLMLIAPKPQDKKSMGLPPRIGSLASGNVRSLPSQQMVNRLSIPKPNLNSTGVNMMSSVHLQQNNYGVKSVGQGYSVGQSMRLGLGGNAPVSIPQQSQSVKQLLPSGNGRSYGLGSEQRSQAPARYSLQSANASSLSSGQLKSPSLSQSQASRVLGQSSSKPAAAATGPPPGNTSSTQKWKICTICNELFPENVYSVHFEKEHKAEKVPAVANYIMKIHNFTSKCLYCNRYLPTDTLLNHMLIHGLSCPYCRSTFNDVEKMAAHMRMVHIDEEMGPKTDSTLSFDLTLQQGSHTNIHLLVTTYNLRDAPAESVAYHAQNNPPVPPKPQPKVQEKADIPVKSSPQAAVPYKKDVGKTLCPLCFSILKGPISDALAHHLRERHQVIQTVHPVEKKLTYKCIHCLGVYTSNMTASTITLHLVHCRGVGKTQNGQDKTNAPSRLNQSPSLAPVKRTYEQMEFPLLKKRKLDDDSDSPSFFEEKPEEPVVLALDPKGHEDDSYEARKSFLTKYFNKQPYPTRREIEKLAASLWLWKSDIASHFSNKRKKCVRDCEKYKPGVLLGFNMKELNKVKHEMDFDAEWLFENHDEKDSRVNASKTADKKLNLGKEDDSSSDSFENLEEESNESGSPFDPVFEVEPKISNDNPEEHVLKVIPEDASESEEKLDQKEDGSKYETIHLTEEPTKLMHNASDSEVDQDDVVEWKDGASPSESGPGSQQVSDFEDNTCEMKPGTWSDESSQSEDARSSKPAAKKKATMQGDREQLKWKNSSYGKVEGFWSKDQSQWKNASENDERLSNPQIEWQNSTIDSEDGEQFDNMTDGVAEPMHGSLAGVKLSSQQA
UniProt Q9BUF5, whole entry, looked up: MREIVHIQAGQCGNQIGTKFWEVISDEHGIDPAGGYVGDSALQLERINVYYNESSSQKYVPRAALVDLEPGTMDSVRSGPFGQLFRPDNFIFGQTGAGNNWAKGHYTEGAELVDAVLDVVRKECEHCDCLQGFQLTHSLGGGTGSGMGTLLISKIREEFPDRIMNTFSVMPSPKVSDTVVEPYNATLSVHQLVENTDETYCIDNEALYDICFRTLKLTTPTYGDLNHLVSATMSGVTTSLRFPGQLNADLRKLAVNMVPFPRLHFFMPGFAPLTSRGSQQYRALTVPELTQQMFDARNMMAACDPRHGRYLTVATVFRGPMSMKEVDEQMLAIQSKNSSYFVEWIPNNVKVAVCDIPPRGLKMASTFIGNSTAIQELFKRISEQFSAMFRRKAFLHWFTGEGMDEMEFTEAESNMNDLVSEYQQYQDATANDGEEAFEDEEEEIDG
UniProt Q9BTX1: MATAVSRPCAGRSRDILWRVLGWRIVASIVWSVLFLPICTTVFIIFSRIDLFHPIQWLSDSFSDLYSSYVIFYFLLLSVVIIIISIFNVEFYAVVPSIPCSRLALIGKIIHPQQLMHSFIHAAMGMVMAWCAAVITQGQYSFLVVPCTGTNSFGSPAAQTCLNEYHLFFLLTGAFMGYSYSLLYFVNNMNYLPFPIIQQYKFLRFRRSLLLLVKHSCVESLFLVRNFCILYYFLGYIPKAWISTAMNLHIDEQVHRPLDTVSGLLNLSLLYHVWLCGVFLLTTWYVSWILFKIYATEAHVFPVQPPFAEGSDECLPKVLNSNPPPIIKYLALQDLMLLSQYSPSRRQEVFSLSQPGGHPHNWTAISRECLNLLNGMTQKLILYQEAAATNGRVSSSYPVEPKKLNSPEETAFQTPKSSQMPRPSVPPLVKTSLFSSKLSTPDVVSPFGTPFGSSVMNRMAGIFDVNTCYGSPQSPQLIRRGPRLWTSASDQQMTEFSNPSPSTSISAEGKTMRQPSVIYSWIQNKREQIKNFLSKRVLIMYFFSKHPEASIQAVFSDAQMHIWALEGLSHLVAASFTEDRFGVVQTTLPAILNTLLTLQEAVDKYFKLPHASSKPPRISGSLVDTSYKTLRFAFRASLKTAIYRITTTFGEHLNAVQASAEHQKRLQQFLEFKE
UniProt Q9BZE9, whole entry, looked up: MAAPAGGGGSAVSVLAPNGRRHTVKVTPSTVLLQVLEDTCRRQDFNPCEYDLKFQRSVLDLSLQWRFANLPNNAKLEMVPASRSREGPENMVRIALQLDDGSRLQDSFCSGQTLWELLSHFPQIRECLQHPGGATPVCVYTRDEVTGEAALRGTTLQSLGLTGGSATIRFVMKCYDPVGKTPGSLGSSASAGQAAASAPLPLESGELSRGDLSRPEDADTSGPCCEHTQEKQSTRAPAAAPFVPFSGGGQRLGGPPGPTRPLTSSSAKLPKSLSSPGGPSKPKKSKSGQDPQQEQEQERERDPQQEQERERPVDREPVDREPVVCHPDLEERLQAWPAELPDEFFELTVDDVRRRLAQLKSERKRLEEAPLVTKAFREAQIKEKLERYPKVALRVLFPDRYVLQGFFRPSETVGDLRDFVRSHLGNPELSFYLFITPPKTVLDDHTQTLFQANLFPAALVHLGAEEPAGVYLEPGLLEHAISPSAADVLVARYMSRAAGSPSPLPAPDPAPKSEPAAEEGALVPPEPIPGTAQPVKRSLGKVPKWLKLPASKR

Each target was assayed with COC(=O)/C=C/c1ccccc1 [methyl cinnamate] (assay: log2 ratio of iodoacetamide-alkyne labeling of the cysteine site, DMSO over compound (competition); higher = stronger covalent engagement of the cysteine by the compound, active = 1 or more). Details: 500 µM; treatment time 1 h; system: HEK293T cell lysate.
In short: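 HEK293T lysate (2 mg/mL) was incubated with electrophile (500 µM) or vehicle for 1 h at ambient temperature and then with iodoacetamide alkyne for 1 h. Labelled proteins were clicked to sCIP-TMT reagents, pooled, digested, enriched on streptavidin and measured by Orbitrap Eclipse LC-MS/MS with FAIMS, with FragPipe quantification. The per-cysteine log2 competition ratio is mean control-channel reporter intensity over mean compound-channel reporter intensity. Across three replicates with duplicate channels, cysteines quantified in only one replicate were excluded.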

log2 ratio of iodoacetamide-alkyne labeling, inactive:
DIDO1 C498 (UniProt Q9BTC0) 0.463
UBE2O C585 (UniProt Q9C0C9) -0.169
UniProt Q9BXJ9_C82 0.0594
GNL3 C158 (UniProt Q9BVP2) 0.273
PRKD2 C861 (UniProt Q9BZL6) 0.0312
GINS3 C188 (UniProt Q9BRX5) 0.0738
UPF3B C453 (UniProt Q9BZI7) 0.333
FANCD2 C758 (UniProt Q9BXW9) -0.177
AMBRA1 C571 (UniProt Q9C0C7) -0.0346
RAB3GAP2 C78 (UniProt Q9H2M9) -0.0638
TNKS1BP1 C1296 (UniProt Q9C0C2) 0.318
UniProt Q9BV86_C195 0.188
THUMPD3 C391 (UniProt Q9BV44) 0.147
HDAC8 C153 (UniProt Q9BY41) 0.0233
UniProt Q9BXJ9_C465 -0.0109
HDHD3 C196 (UniProt Q9BSH5) 0.0256
EFHD1 C8 (UniProt Q9BUP0) 0.401
POLDIP3 C303 (UniProt Q9BY77) -0.0781
GNL3 C131 (UniProt Q9BVP2) 0.122
ISCU C69 (UniProt Q9H1K1) 0.177
CPPED1 C54 (UniProt Q9BRF8) 0.338
PELO C218 (UniProt Q9BRX2) 0.332
ADNP C31 (UniProt Q9H2P0) -0.113
SLC4A1AP C125 (UniProt Q9BWU0) -0.000441
PELO C204 (UniProt Q9BRX2) 0.248
RBM4 C31 (UniProt Q9BWF3) -0.213
DIDO1 C856 (UniProt Q9BTC0) -0.00383
TUBB6 C124 (UniProt Q9BUF5) 0.154
UniProt Q9BTX1_C369 0.268
SLK C1153 (UniProt Q9H2G2) 0.454
ASPSCR1 C224 (UniProt Q9BZE9) 0.321
RBM4 C107 (UniProt Q9BWF3) -0.129
ITPA C146 (UniProt Q9BY32) 0.297
SLK C993 (UniProt Q9H2G2) 0.169
TNKS1BP1 C794 (UniProt Q9C0C2) 0.335
MAF1 C88 (UniProt Q9H063) 0.436
LZTS2 C376 (UniProt Q9BRK4) 0.179

Reprinted at random: 2 entries already listed, in no set order.
log2 ratio of iodoacetamide-alkyne labeling, inactive:
TNKS1BP1 C1296 (UniProt Q9C0C2) 0.318
PELO C204 (UniProt Q9BRX2) 0.248
